Data as given in patent publication CN113683697A.
These are yes or no findings as the source states them, for the method shown. Some results given as binding are weak or reduced against the parent protein; the word gives no strength. Sequences can lack the tags named with a protein.

Target: T1, 人2Ig-B7-H3抗原 (Acro, 货号B73-H52E2), His-tag (human) (UniProt Q5ZPR3)
T1 sequence (looked up): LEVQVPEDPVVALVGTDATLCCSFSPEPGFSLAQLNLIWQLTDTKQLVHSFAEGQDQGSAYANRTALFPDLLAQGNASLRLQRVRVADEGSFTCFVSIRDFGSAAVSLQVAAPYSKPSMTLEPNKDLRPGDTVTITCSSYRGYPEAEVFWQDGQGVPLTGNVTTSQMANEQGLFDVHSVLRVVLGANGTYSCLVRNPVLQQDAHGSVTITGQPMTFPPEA
Assay: ELISA, antigen coated at 1 μg/mL

B1: 单克隆抗体27B4 (mouse monoclonal antibody from hybridoma 27B4) (antibody, V domains shown)
VH: QVQLQQSGAELARPGASVKLSCKASGYTFTTYWMQWIQQRPGQGLEWIGAIYPGDGGSRYTQRFKGKATMTADPSSSTVYMQLTSLASEDSAVYFCARGGNYISFPMYYWGQGTSVTVSP
VL: DIVMTQSHKFMSTSVGDRVSITCKASRGVSTAVAWYQQKPGQSPKLLIYWASTRHTGVPDRFTGSGSGTDYTLTISSVQAEDLALYYCQQHYDTPYTFGGGTKLEIQ
- binding: binds

B2: h27B4-H4-L3 (antibody, human IgG1, kappa, V domains shown)
VH: EVQLVQSGAEVKKPGESLKISCKASGYTFTTYWIGWVRQMPGKGLEWMGIIYPGDGGSRYSPSFQGQVTISADKSISTAYLQWSSLKASDTAMYYCARGGNYISFPMYYWGQGTLVTVSS
VL: EIVMTQSPATLSVSPGERATLSCKASRGVSTALAWYQQKPGQAPRLLIYWASTRATGIPARFSGSGSGTEFTLTISSLQSEDFAVYYCQQHYDTPYTFGQGTKLEIKR
- binding: binds
